# Percent effect of library compounds

Protein sequences, listed by entry. Tags and fused reporters are not part of them. Residues count along the entry.
UniProt A4I591, 1-473: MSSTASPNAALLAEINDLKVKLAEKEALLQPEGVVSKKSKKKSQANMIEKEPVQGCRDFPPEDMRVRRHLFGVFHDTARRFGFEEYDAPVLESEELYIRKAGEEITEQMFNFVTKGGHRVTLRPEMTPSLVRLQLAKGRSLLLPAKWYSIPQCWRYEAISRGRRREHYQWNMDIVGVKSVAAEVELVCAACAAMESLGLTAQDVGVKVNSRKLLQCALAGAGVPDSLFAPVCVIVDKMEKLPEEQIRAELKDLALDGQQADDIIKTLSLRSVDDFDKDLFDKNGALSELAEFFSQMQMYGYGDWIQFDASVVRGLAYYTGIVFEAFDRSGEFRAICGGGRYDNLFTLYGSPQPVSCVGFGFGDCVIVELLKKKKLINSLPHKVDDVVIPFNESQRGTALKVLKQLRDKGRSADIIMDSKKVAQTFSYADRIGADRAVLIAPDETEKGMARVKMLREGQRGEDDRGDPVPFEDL
UniProt Q4DA54, 1-478: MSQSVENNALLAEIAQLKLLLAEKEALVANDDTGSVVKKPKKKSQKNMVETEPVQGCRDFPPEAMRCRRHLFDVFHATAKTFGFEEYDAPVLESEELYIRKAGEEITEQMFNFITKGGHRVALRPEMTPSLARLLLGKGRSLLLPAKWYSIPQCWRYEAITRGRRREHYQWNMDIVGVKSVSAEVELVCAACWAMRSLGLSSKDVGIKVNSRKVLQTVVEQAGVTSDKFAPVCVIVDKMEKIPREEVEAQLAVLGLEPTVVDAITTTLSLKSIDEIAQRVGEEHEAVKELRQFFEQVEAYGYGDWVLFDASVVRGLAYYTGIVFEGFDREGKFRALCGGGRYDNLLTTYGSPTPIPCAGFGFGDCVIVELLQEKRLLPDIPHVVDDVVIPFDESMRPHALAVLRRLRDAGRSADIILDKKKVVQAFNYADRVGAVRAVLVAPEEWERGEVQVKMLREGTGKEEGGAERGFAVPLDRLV
UniProt P9WPC5, whole entry: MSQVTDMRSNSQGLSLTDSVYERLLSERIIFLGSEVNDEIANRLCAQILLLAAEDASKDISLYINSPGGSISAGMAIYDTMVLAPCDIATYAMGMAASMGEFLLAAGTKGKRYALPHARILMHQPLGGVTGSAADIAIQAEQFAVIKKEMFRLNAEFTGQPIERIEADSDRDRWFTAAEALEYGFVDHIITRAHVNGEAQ
UniProt P9WPC3, whole entry partner: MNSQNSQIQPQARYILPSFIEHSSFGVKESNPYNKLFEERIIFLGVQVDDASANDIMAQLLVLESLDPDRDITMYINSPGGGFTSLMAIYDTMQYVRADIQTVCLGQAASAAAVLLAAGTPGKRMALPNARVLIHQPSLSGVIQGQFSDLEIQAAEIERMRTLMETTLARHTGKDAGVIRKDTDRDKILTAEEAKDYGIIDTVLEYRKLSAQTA

A: 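Enzyme assay of histidyl-tRNA synthetase; the read-out is not stated. Target: Histidine-tRNA ligase, Leishmania infantum (UniProt A4I591). Tested at 30 µM. The record gives no direction; compounds that gave an IC50 in retests scored well above the rest, so higher reads as stronger inhibition. The assay is labelled LdHisRS but filed under L. infantum. About 69,000 compounds were tested under these conditions; 0.6% (about 410) showed 50% or more at least once.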
B: 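Enzyme assay of histidyl-tRNA synthetase; the read-out is not stated. Target: Histidine-tRNA ligase, Trypanosoma cruzi CL Brener (UniProt Q4DA54). Compounds at 30 µM. Higher reads as stronger inhibition (inferred: compounds with an IC50 in retests scored well above the rest). Of about 69,000 compounds tested this way, about 31 (0.045%) reached 50% or more in at least one test.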
C: 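ClpP1P2, Mycobacterium tuberculosis (UniProt P9WPC5 and UniProt P9WPC3). Protease assay of ClpP1P2, read by the AMC dye that it sets free. Tested at 50 µM. Higher reads as stronger inhibition, judged from the few compounds that gave an IC50. Most other retested compounds had strongly negative values. About 69,000 compounds were tested under these conditions; 0.015% (about 10) showed 50% or more at least once.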

Results are given as percent effect. The record does not define 0% and 100%; most values in the screen are far below 50% and negative numbers occur (in some assays of this library far below -100). The compounds are a random part of those screened.

compound,A,B,C
O=C(c1ccc(C(F)(F)F)nc1)N1CCCC(n2cncn2)C1 (centres undefined),-17.02,0.7634,-5.405
COc1cc(C(=O)NC(C)C)nc2c(C)cc(F)cc12,19.57,2.97,1.542
CC(=O)Nc1nc(CN(C)C2CCCN(c3cccnn3)C2)cs1 (centres undefined),0.8772,3.779,-22.18
COCC(O)CNC(=O)c1coc(COc2cccc(F)c2)n1 (centres undefined),19.74,6.522,1.356
CC(C)(C)c1cnc(CN2CCC(NC(=O)C3CCOCC3)CC2)o1,5.263,9.497,4.568
CN(C(=O)COc1ccc(-c2noc(C3CCCO3)n2)cc1)C1CC1 (centres undefined),22.12,3.097,-12.07
CN(C)C(=O)NCc1cc2n(n1)CCN(C[C@H]1[C@@H]3CNC[C@@H]31)C2,17.31,-0.8333,-11.73
Cc1cnn(CCNCCCOc2ccc3c(c2)OCO3)c1,25.86,6.806,2.929
CCOc1ccc(Oc2cc(CN)ccn2)cc1,30.12,16.42,8.671
CSc1cc2c(cc1NC(=O)N(C)Cc1cnn(C)c1)OCCO2,12.61,5.882,-4.895
COc1ccnc(N(C)Cc2ccco2)n1,3.419,4.865,3.126
CN1CCN(Cc2cnc3n2CCN(C(=O)c2ccccn2)C3)CC1,0,0,-6.345
CN(C)c1ncc(NC(=O)c2cccc(Nc3cnn(C)c3)c2)cn1,5,7.955,1.928
COCCOc1ccc(S(=O)(=O)Nc2cccc(O)c2F)cc1C,11.29,3.061,-15.74
CC(C)NC(=O)C1CCC2(CCN(Cc3cnn(C)c3)CC2)C1 (centres undefined),-2.632,6.897,3.521
Cc1cc(-n2c(C)cn(CN(C)C3CCS(=O)(=O)C3)c2=O)no1 (centres undefined),14.58,4.167,-5.151
O=C(NCC(Cc1cccc(F)c1)N1CCCC1=O)C1CCCC1 (centres undefined),23.08,3.614,-28.46
COCC(=O)NCc1cc2n(n1)CCCN(CCCC1CCCC1)C2,17.09,2.703,-8.575
CC(C)n1cnc(C2CN(C)c3ccc(C(=O)NCC4CC4)cc32)n1 (centres undefined),9.735,2.151,-5.852
Cc1ccc(-c2nc(C3CCN(C(=O)c4cnn(C)c4)CC3)no2)cn1,-2.685,0.2857,-69.36
CN(Cc1ccc(F)cc1)C(=O)NCc1nnc2n1CCCCC2,3.371,-0.7519,-1.385
N#Cc1ccc(NCC(=O)Nc2ccn(Cc3cccnc3)n2)cc1,12.5,10.13,0.1687
O=C(c1cc(=O)c(OCc2ccccc2F)co1)N1CCSCC1,18.42,-26.83,-5.075
CCC(CC)c1nnc(NC(=O)NC(C)Cn2cccn2)s1 (centres undefined),3.846,3.429,11.11
COCCN(CCOC)C(=O)c1cnn(C)c1-n1c(C)ccc1C,14.67,1.587,-4.705
CNC(=O)[C@H]1C[C@@H]2CN(S(=O)(=O)c3ccccc3)C[C@@H]2N1C,0.9434,2.51,-18.4
Cc1cccc(CNC(=O)CC2CCN(C(=O)C(C)C)CC2)n1,2.857,3.448,10.87
Cc1cnc(CN(C)C2CCN(Cc3ccccc3C#N)C2)o1 (centres undefined),20.27,4.151,-7.53
CCCn1cc(C(=O)NCCc2ccc3c(c2)OCO3)c(C)n1,5.833,9.211,4.503
O=C(Cc1cccc(F)c1F)NS(=O)(=O)c1ccc(Cl)cc1F,-4.464,3.448,-6.258
Cc1nn(C)c(Cl)c1C1CCCN1CC(=O)NC1CCCCC1 (centres undefined),18.58,5.752,-7.845
Cn1cc(CNC2CCS(=O)(=O)C2)c(-c2cc3ccccc3o2)n1 (centres undefined),23.4,10.98,-6.154
Cc1nn(C)cc1C(=O)Nc1cccc(CN2CCC(CO)CC2)c1,25.71,-11.96,8.201
Cc1nn(C)c(Cl)c1CNCc1cccnc1N1CCCCC1,9.574,9.045,-8.039
CCn1nccc1CN(C)c1[nH]cnc2nc(C)nc1-2,16.67,3.96,16.71
CCc1noc(CN2CCC(NC(=O)c3ccc(C)s3)CC2)n1,20,0.4484,-6.89
O=C1NCCN1C(CNS(=O)(=O)C1CC1)Cc1cccc(F)c1 (centres undefined),25.64,7.229,-12.1

Some entries from above, unchanged:

* Cc1nn(C)c(Cl)c1C1CCCN1CC(=O)NC1CCCCC1 (centres undefined) | A: 18.58%; B: 5.752%; C: -7.845%
* CNC(=O)[C@H]1C[C@@H]2CN(S(=O)(=O)c3ccccc3)C[C@@H]2N1C | A: 0.9434%; B: 2.51%; C: -18.4%
* Cc1nn(C)c(Cl)c1CNCc1cccnc1N1CCCCC1 | A: 9.574%; B: 9.045%; C: -8.039%
* CSc1cc2c(cc1NC(=O)N(C)Cc1cnn(C)c1)OCCO2 | A: 12.61%; B: 5.882%; C: -4.895%

Source: ChEMBL document CHEMBL3988442, “University of Dundee, Small-Polar-MMV Screening Library” (2021).